# Test results taken from the supplement of paper PMC10849652.
# By UniProt entry, the sequences of proteins in these tests, tags left out. Where a name states a change or a piece, a line headed by the entry shows the natural chain unless it says otherwise.
# UniProt Q8N165: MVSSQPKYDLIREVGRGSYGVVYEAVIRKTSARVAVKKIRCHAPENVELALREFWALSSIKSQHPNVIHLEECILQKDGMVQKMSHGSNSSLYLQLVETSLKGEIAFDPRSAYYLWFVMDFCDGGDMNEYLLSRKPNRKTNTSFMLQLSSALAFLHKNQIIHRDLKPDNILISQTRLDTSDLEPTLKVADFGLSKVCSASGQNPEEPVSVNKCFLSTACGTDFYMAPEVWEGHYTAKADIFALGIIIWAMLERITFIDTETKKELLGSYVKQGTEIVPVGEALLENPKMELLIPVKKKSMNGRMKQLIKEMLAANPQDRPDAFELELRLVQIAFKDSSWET
# UniProt P30039: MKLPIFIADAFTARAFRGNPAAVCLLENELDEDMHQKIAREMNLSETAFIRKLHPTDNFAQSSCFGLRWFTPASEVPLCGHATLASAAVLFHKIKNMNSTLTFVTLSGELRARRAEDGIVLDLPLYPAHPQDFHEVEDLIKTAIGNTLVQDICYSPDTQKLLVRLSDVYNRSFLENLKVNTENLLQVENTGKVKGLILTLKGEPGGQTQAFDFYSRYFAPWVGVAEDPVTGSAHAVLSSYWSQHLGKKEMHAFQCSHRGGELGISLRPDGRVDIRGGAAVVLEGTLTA
# UniProt Q6L8Q7: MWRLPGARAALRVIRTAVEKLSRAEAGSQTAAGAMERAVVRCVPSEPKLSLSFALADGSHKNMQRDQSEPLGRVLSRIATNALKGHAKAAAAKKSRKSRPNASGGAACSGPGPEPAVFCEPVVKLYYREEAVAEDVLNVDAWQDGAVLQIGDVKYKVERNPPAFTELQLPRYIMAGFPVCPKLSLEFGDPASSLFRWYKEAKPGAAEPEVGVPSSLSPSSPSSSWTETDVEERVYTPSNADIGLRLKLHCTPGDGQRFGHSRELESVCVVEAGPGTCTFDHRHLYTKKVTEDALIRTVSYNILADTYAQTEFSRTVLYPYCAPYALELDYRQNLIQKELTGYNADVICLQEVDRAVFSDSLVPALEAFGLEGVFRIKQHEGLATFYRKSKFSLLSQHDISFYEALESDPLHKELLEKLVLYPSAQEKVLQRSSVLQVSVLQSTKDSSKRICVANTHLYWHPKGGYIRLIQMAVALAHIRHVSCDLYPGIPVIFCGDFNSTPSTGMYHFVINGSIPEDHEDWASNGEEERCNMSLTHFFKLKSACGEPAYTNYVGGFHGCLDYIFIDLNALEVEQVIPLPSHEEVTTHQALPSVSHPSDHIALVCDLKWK
# Some of the results follow.
# Legend:
# Assay in all cases: log2 fold change, soluble protein after heating vs DMSO (PISA); higher = thermal stabilisation; K562 cells, 10 uM, 30 min; active = over 0.2 and 3.5 SD of the protein, either way, in both replicates (recomputed)
# [1] = compound: COC1=CC=C(C=C1)CN2C=CC3=C2C=C(C=C3)C(=O)NO
# In short: (§1)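 K562 cells at 2×10^6 cells/mL were exposed to 10 μM compound for 30 min, then aliquots were heated for 3 min across 48°C-58°C, pooled, and extracted in PBS containing 0.5% NP-40 at 4°C. The supernatant after 21,000xg for 90 min was taken as soluble protein and measured by TMTpro 16plex LC-MS/MS with channel sums equalised. Thermal stability is reported relative to control samples, with values from duplicates. Fold changes are given on a log2 scale.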
# [2] = compound: CON(C)C(=O)N1N=C(c2cc(F)ccc2F)S[C@@]1(CCCN)c1ccccc1 [filanesib]
# In short: as §1
# [3] = compound: CO[C@H]1C[C@@H]2CC[C@@H](C)[C@@](O)(O2)C(=O)C(=O)N2CCCC[C@H]2C(=O)O[C@H]([C@H](C)C[C@@H]2CC[C@H](n3cnnn3)[C@H](OC)C2)CC(=O)[C@H](C)/C=C(\C)[C@@H](O)[C@@H](OC)C(=O)[C@H](C)C[C@H](C)/C=C/C=C/C=C/1C [zotarolimus]
# In short: as §1
# [4] = compound: COc1cc(C(=O)O)ccc1NC(=O)[C@@H]1N[C@@H](CC(C)(C)C)[C@](C#N)(c2ccc(Cl)cc2F)[C@H]1c1cccc(Cl)c1F [idasanutlin]
# In short: as §1
# [5] = compound: COc1cc(Nc2ncc3c(n2)-c2ccc(Cl)cc2C(c2c(F)cccc2OC)=NC3)ccc1C(=O)O [alisertib]
# In short: as §1
# [6] = compound: COc1cc2nc(-c3cc(F)ccc3O)nc(N[C@@H]3CNC[C@H]3C(C)(C)O)c2cc1OC
# In short: as §1
# [7] = compound: COc1cc2ncnc(Nc3ccc(F)c(Cl)c3)c2cc1OCCCN1CCOCC1 [gefitinib]
# In short: as §1
# [8] = compound: COc1cccc2cc(-c3nc([C@H]4CC[C@H](C(=O)O)CC4)n4ncnc(N)c34)[nH]c12
# In short: as §1
# [9] = compound: CS(=O)(=O)CCNCc1ccc(-c2ccc3ncnc(Nc4ccc(OCc5cccc(F)c5)c(Cl)c4)c3c2)o1 [lapatinib]
# In short: as §1
# [10] = compound: CS(=O)(=O)c1ccc(-c2cnc(N)c(C(=O)Nc3ccccc3)n2)cc1
# In short: as §1
# [11] = compound: C[C@@H](Oc1cc(-c2cnn(C3CCNCC3)c2)cnc1N)c1c(Cl)ccc(F)c1Cl [crizotinib]
# In short: as §1
# [12] = compound: C[C@@H]1COCCN1C2=NC(=NC(=C2)C3(CC3)S(=O)(=O)C)C4=C5C=CNC5=CC=C4
# In short: as §1
# [13] = compound: C[C@H](C1=CC=C(C=C1)C(=O)NC2=C3C=CNC3=NC=C2)N
# In short: as §1
# [14] = compound: Cc1cc(SCc2sc(-c3ccc(C(F)(F)F)cc3)nc2C)ccc1OCC(=O)O
# In short: as §1
# [15] = compound: Cc1ccc(-n2nc(C(C)(C)C)cc2NC(=O)Nc2ccc(OCCN3CCOCC3)c3ccccc23)cc1 [doramapimod]
# In short: as §1
# [16] = compound: Cc1ccc(C(=O)N(CCCN)[C@@H](c2nc3cc(Cl)ccc3c(=O)n2Cc2ccccc2)C(C)C)cc1 [ispinesib]
# In short: as §1
# [17] = compound: C[C@H](Nc1ncnc2nc[nH]c12)c1cc2cccc(Cl)c2c(=O)n1-c1ccccc1 [duvelisib]
# In short: as §1
# [18] = compound: Cc1cc(Nc2cc(N3CCN(C)CC3)nc(Sc3ccc(NC(=O)C4CC4)cc3)n2)n[nH]1 [tozasertib]
# In short: as §1
# [19] = compound: CS(=O)(=O)N1CCN(Cc2cc3nc(-c4cccc5[nH]ncc45)nc(N4CCOCC4)c3s2)CC1 [pictilisib]
# In short: as §1
# [20] = compound: Cc1cc(Nc2cc(CN3CCOCC3)c3nc(C)c(Cc4ccc(Cl)cc4F)n3n2)n[nH]1 [gandotinib]
# In short: as §1
Target,log2 fold change [1],log2 fold change [2],log2 fold change [3],log2 fold change [4],log2 fold change [5],log2 fold change [6],log2 fold change [7],log2 fold change [8],log2 fold change [9],log2 fold change [10],log2 fold change [11],log2 fold change [12],log2 fold change [13],log2 fold change [14],log2 fold change [15],log2 fold change [16],log2 fold change [17],log2 fold change [18],log2 fold change [19],log2 fold change [20]
PDIK1L (UniProt Q8N165),inactive: -0.014,inactive: 0.112,inactive: -0.059,inactive: 0.001,inactive: 0.099,inactive: -0.127,inactive: 0.012,inactive: 0.092,inactive: 0.086,inactive: 0.009,inactive: -0.082,inactive: -0.003,inactive: 0.029,inactive: 0.017,inactive: 0.085,inactive: 0.039,,,,
PAFAH2 (UniProt Q99487),inactive: -0.025,inactive: -0.089,inactive: 0.012,inactive: 0.153,,inactive: 0.043,,,inactive: -0.037,inactive: 0.005,inactive: 0.029,,inactive: 0.08,inactive: -0.057,inactive: 0.053,inactive: -0.044,,,,
PBLD (UniProt P30039),inactive: -0.132,inactive: -0.055,inactive: -0.078,inactive: -0.089,inactive: 0.025,inactive: 0.035,inactive: 0.012,inactive: 0.028,inactive: -0.03,inactive: -0.002,inactive: -0.184,inactive: 0,inactive: -0.029,inactive: 0.018,inactive: 0.335,inactive: 0.046,inactive: 0.109,inactive: -0.034,,
PDE12 (UniProt Q6L8Q7),active: 0.359,inactive: -0.052,inactive: 0.044,inactive: -0.052,inactive: -0.051,inactive: 0.014,inactive: -0.01,inactive: -0.003,inactive: -0.007,inactive: 0.047,inactive: 0.032,inactive: 0.088,inactive: -0.133,inactive: 0,inactive: -0.027,inactive: 0.065,,,inactive: 0.074,inactive: 0.027
